US20240190986A1
Residue numbers refer to the chain shown, from its start. Results are given in words; binding and its absence hold for the method and conditions named. Some entries that bind do so weakly or less than the wild type.

By UniProt entry, the sequences of proteins in these tests, tags left out. Where a name states a change or a piece, a line headed by the entry shows the natural chain unless it says otherwise. Chains listed by the source or under a name are the forms on record and can include a tag or linker.
MSLN·His protein (Q13421, form named): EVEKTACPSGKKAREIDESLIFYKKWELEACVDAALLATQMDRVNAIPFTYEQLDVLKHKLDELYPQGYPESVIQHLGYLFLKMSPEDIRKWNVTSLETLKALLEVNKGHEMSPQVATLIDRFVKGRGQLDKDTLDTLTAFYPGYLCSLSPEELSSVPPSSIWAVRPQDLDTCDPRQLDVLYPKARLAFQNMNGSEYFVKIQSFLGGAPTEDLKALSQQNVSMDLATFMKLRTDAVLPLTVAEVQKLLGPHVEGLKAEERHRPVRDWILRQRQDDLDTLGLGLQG
MSLN.Fc protein (Q13421, form named): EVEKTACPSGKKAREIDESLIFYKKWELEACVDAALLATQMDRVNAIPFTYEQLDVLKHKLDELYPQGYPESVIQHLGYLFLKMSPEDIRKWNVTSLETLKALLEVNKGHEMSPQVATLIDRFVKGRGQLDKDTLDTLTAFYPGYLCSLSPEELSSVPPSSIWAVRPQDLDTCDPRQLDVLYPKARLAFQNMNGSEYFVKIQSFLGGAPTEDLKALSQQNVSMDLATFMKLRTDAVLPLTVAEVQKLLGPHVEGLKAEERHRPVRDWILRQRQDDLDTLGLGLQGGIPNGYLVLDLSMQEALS

B1: M044 (VHH)
VHH: QVQVVESGGGFVQAGGSLRLSCAASTPIISIAYMGWYRQISEKERQLVATINSGGKTYYADSVKGRFTISRDNAKNTLYLQMNMLKPEDTGMYYCAASNKDYNDYDPDWGQGTQVTVSS
B2: M126 (VHH)
VHH: EVQLVESGGGWVQSGGSLRLACAASGDSFGLNVVGWYRLAPDKQRELVASIGNGGRTTDYADSVKGRFTISSDNAKNTVFLQMNDLKPEDTAMYYCHLRVSVTEGYWGQGTQVTVSS
B3: M129 (VHH)
VHH: QVQLVESGGGSAQAGGSLILSCVASANLFTIDALGWYRQAPGPKRELVAAISSGGNKYYADAVKGRFTISRDTLTKTMWLQMNNLKPEDTAMYYCAAEDYGLGQRSWGMGTQVTVSS
B4: M156 (VHH)
VHH: QVQLVESGGGLVQAGGSLRLSCAVSGISFEYYAIGWFRQAPGKEREAVSCTTSGTTSGGGVTDYADSLKGRFTISRDVAKNTVYLQMNNLTPEDTAVYYCAADIHCRGYVLFVPSDFGNWGQGTQVTVSS
B5: M169 (VHH)
VHH: EVQLVESGGGTVQPGESLRLSCEASGAVSTINAMGWYRQTPEMRKLVATMGSGGNTYYADSVKGRFTISRDFAGNTVDLQMNDLKPEDTGVYFCAADKFGADIKEVAYWGKGTLVTVSS
B6: M182 (VHH)
VHH: QVQLVESGGGSVQAGGSLTLSCAASGAVSSINAMGWYRQTPEKVRQLVATMGSGGNTYYAASVKGRFTISRDYAKNTVALQMNHLLPEDTAVYYCAADRFGADIREVDYWGKGTQVTVSS
B7: M197 (VHH)
VHH: EVQLVESGGGLVQAGGSLRLSCAASGSHFGLNVVGWYRQAPGKQRELVASIGNSGRTTDYADSVKGRFTISKDNAQNTIYLQMNNLKPEDTAMYRCHLRVSVERGYWGQGTQVTVSS
B8: M210 (VHH)
VHH: QVQLVESGGGLVQPGGSLRLSCAASGITLDNYAIAWFRQAPGKKREGVSCISSNGNTYYQPSVKGRFTIARDNAKNTVYLHMNNLNPEDTAVYYCQVGQFSSSTTPVQAMSVMSLYADWGQGTQVTVSS
B9: M224 (VHH)
VHH: QVQLVESGGGLVQPGGSLRLSCAASGFTFHYYAIGWFRQAPGKEREGVSCISSSGDSTWFSDSVKGRFTVSRDNAKNIVHLQMNNLKPEDTAVYYCAGTTRSGYVCYDAEPYDSWGQGTQVTVSS
B10: M004 (VHH)
VHH: EVQLVESGGGLVQAGGSLRLSCAASESISSIAYMGWYRRISEKERNLVATISSTGSTYYADSVKGRFTISRDNAKNTMYLQMNRLKPEDTAIYYCAASNKAYNDYDPDWGQGTQVTVSS
B11: M005 (VHH)
VHH: B2 VHH with D27S, L39Q, M93V, V100A, E104K
B12: M012 (VHH)
VHH: QVQLVESGGDLVQTGGSLRLSCVVSGSTFAINAMGWYRQAPGKERELVAAISSGGDSTHYADDVKGRFTISRDNAENTMYLQMKSLKPEDTAVYVCNARGCRDFHNPQALCVLRDYWGQGTQVTVSS
B13: M032 (VHH)
VHH: EVQLVESGGGSVQAGGSLKISCAASGSVIDIGAMGWYRHITEKERKLVATINAGGNTYYADSVKGRFTISRDNAKYTVYLQMNSLKPEDTAMYYCAAEDINYTGTEAYYWGQGTQVTVSS
B14: M050 (VHH)
VHH: EVQLQESGGGLVQAGGSLRLSCAASGAVSSINAMGWYRQTPEKVRKLVATMGSGGNTYYADSVKGRFTISRDYAKNTVALQMNNLIPEDTAVYYCAADKFGADIHEVDYWGKGTLVTVSS
B15: M2339 (VHH)
VHH: QLQLGASGGGLVQPGGSLRLSCALSGFTLRELDEFAIGWFRQAPGKEREGVSCISGTGGITHYADSVKGRFTISRDIAKTTVYLQMNSLNSEDTAVYYCAADERCTDRLIRPPTYWGQGTQVTVSS

These binders were tested against MSLN·His protein (human) (UniProt Q13421) (assay: SPR (Biacore T200), MSLN-His amine-coupled to a CM5 chip, antibody injected to saturation).
B1 was tested, and the binding was “binds”.

Each binder was assayed against MSLN.Fc protein (human) (UniProt Q13421) (assay: ELISA, antigen coated, TG1 supernatant).
B1 was tested, and the binding was “binds”.
With B2 the binding was “binds”.
In the case of B3, the binding is reported as “binds”.
B4 was tested, and the binding was “binds”.
In the case of B5, the binding is reported as “binds”.
B6 was tested, and the binding was “binds”.
For B7, the binding was “binds”.
With B8 the binding was “binds”.
For B9, the binding was “binds”.
With B10 the binding was “binds”.
B11 was tested, and the binding was “binds”.
With B12 the binding was “binds”.
With B13 the binding was “binds”.
For B14, the binding was “binds”.

The binders below were run against MSLN·His protein (human) (UniProt Q13421) (assay: ELISA, antigen coated, TG1 supernatant).
In the case of B15, the binding is reported as “binds”.

What follows are binders tested against MSLN·His protein (human) (UniProt Q13421) (assay: SPR (Biacore T200), MSLN-His amine-coupled to a CM5 chip, M044 injected as second antibody after YP218).
In the case of B1, the binding is reported as “binds”.
